# The list shows only some results of the screen, not a fair sample: it is rich in T/C values a quarter to a half above the control, in often repeated tests (any T/C) and in doses without a T/C. Further doses and runs are listed elsewhere. T/C gives the treated animals as a percentage of the vehicle group. Some doses have a count of surviving animals in place of a T/C: the source files T/C as zero there, which appears to mark a toxic dose or a test without result, not a measured value. Some survivor counts are full or nearly so, which does not show that the dose was tolerated: survival well below the control is almost never listed, so the zero probably covers shortened survival too. Survivors were counted at the toxicity check, usually on the fifth day, unless a day is given; later deaths do not show. Schedule codes are those of the source, taken here to give the interval after Q, in days (D) or hours (H), and the number of doses after X. Some entries were tested several times; the values are given in rising order. Where survival is the endpoint, the PubChem record calls one and a half times the control and up active, and a quarter to a half above the control has no call in these data; cut-offs in other NCI protocols can differ. Counts like (3×) count equal records among those shown.
# Tested on: CD2F1 mice, L1210 leukemia ip, survival T/C
# Experiment: NCI In Vivo Anticancer Drug Screen. Data for tumor model L1210 Leukemia (intraperitoneal) in CD2F1 (CDF1) mice
# Conditions: higher T/C = longer survival
# How it was run: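 Transplantable tumor in mice; compound-treated vs vehicle-treated groups. Read-out = treated/control ratio of the measured endpoint.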
# [1] = T/C endpoint: mean survival time, dose: 200.0 mg/kg/injection, schedule: Q01DX009 (ip), vehicle: saline with Tween-80
# [2] = T/C endpoint: mean survival time, dose: 100.0 mg/kg/injection, schedule: Q01DX009 (ip), vehicle: saline with Tween-80
# [3] = T/C endpoint: mean survival time, dose: 400.0 mg/kg/injection, schedule: Q04DX003 (ip), vehicle: saline with Tween-80
smiles,measurement,setting,value
CC(=O)OC1C2(CC3N4C(=O)C5(CO)SSC4(CC31O)C(=O)N5C)OC(C)C(C)(C)C2=O (centres undefined),survivor count,"T/C endpoint: mean survival time, dose: 1.25 mg/kg/injection, schedule: Q01DX009 (ip), vehicle: saline with Tween-80",3 of 6
same,survivor count,"T/C endpoint: mean survival time, dose: 2.5 mg/kg/injection, schedule: Q01DX009 (ip), vehicle: saline",4 of 6
same,survivor count,"T/C endpoint: mean survival time, dose: 5.0 mg/kg/injection, schedule: Q01DX009 (ip), vehicle: saline",1 of 6 and 2 of 6
same,survivor count,"T/C endpoint: mean survival time, dose: 10.0 mg/kg/injection, schedule: Q01DX009 (ip), vehicle: saline",0 of 6
Cc1ccc2c3csc4ccccc4c-3nc2c1,survivor count,"T/C endpoint: mean survival time, dose: 100.0 mg/kg/injection, schedule: Q04DX003 (ip), vehicle: acetone",0 of 6
same,survivor count,"T/C endpoint: mean survival time, dose: 200.0 mg/kg/injection, schedule: Q04DX003 (ip), vehicle: acetone",1 of 6
same,survivor count,"T/C endpoint: mean survival time, dose: 400.0 mg/kg/injection, schedule: Q04DX003 (ip), vehicle: acetone",0 of 6
CCN(CC)CCN1CC2CCCCC2C1 (centres undefined),survivor count,[1],1 of 6
same,survivor count,"T/C endpoint: mean survival time, dose: 400.0 mg/kg/injection, schedule: Q01DX009 (ip), vehicle: saline with Tween-80",0 of 6
CCCCC(CC)C(=O)[O][Pb]([CH3])([CH3])[CH3] (centres undefined),survivor count,"T/C endpoint: mean survival time, dose: 20.0 mg/kg/injection, schedule: Q04DX003 (ip), vehicle: saline with Tween-80",3 of 6
Nc1nc(N)c2ncn(C3CC(CO)C(O)C3O)c2n1 (centres undefined),survivor count,[2],3 of 3
same,survivor count,[1],2 of 3
COc1ccc(C(=O)C/C(=N\N(C(=O)c2ccc(OC)cc2)c2ccccc2)c2ccc(OC)cc2)cc1,survivor count,[3],6 of 6
CN(C)c1ccc2c(NCCCCCCNc3ccnc4cc(N(C)C)ccc34)ccnc2c1,T/C,"T/C endpoint: median survival time, dose: 6.25 mg/kg/injection, schedule: Q01DX009 (ip), vehicle: distilled water + Tween-80 + alcohol",126 % of control
same,T/C,"T/C endpoint: median survival time, dose: 12.5 mg/kg/injection, schedule: Q01DX009 (ip), vehicle: distilled water + Tween-80 + alcohol",125 and 126 % of control
same,T/C,"T/C endpoint: median survival time, dose: 25.0 mg/kg/injection, schedule: Q01DX009 (ip), vehicle: distilled water + Tween-80 + alcohol",131 and 138 % of control
same,survivor count,"T/C endpoint: median survival time, dose: 50.0 mg/kg/injection, schedule: Q01DX009 (ip), vehicle: distilled water + Tween-80 + alcohol",1 of 10 and 5 of 6
COc1cc2ccc(CC(=S)N3CCOCC3)cc2cc1OC,survivor count,[3],6 of 6
CCNC(=O)OCc1c(COC(=O)NCC)c(-c2ccc(Cl)c(Cl)c2)n2c1CCC2,T/C,"T/C endpoint: mean survival time, dose: 6.25 mg/kg/injection, schedule: Q01DX009 (ip), vehicle: saline with Tween-80","120, 122, 126, 129 % of control"
same,T/C,"T/C endpoint: mean survival time, dose: 12.5 mg/kg/injection, schedule: Q01DX009 (ip), vehicle: saline with Tween-80","132, 140 (2×), 146 % of control"
same,T/C,"T/C endpoint: mean survival time, dose: 25.0 mg/kg/injection, schedule: Q01DX009 (ip), vehicle: saline with Tween-80","103, 134, 137, 149 % of control"
same,survivor count,[2],4 of 6 and 6 of 6
Nc1[nH]c(=O)[nH]c(=O)c1N,survivor count,"T/C endpoint: mean survival time, dose: 400.0 mg/kg/injection, schedule: Q04DX002 (ip), vehicle: saline",0 of 3
same,survivor count,[3],1 of 6
CCCCCCCCCCCCOc1ccc(Sc2ccc(OCCCCCCCCCCCC)cc2C)c(C)c1,survivor count,"T/C endpoint: mean survival time, dose: 200.0 mg/kg/injection, schedule: Q01DX001 (ip), vehicle: saline with Tween-80",6 of 6
same,survivor count,"T/C endpoint: mean survival time, dose: 400.0 mg/kg/injection, schedule: Q01DX001 (ip), vehicle: saline with Tween-80",6 of 6
O=C(C[n+]1cccc(C(=O)NCc2ccccc2)c1)Nc1ccc(Cl)cc1,survivor count,"T/C endpoint: mean survival time, dose: 200.0 mg/kg/injection, schedule: Q04DX003 (ip), vehicle: saline",1 of 6
same,survivor count,"T/C endpoint: mean survival time, dose: 400.0 mg/kg/injection, schedule: Q04DX003 (ip), vehicle: saline",0 of 6
COC(=O)c1nc2ccccc2cc1C#N,survivor count,"T/C endpoint: mean survival time, dose: 400.0 mg/kg/injection, schedule: Q01DX001 (ip), vehicle: saline",3 of 6
